# Measurements taken from article PMC12392934, “TCP19 regulates nitrogen‐dependent sheath blight susceptibility by modulating nitrogen uptake and signalling in rice”.
# No constants are given. Whether binding was seen depends on the method and setting. For part of these data: Binding calls can cover weak binding; strength is not graded here. For part of these data: Sequences can lack the tags named with a protein. For part of these data: Binding seen in cells or lysates may run through a third protein.
# T1: PIL15-cCFP (rice (Oryza sativa)) (UniProt Q0JNI9)
# T1 sequence: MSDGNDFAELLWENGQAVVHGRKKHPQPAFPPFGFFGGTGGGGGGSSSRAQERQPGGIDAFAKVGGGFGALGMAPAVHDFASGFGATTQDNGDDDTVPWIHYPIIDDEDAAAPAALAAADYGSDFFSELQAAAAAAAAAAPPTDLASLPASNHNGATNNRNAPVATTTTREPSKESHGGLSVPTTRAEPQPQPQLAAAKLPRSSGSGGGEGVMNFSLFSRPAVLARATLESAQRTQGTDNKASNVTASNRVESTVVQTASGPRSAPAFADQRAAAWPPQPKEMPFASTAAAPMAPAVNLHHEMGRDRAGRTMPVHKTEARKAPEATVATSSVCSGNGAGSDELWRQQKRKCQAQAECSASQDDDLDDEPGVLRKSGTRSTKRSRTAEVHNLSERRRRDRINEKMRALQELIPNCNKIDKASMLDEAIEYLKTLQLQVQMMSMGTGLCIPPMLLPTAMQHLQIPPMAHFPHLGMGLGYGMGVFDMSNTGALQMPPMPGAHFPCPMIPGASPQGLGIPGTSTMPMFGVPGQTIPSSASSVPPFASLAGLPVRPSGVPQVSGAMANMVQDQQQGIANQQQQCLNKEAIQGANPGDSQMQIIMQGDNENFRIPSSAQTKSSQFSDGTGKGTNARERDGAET
# T2: PIL15-3xFLAG (rice (Oryza sativa)) (UniProt Q0JNI9)
# T2 sequence: T1 sequence
# B1: DEP1-nYFP (protein, UniProt Q67UU9 1-426)
# chain: MGEEAVVMEAPRPKSPPRYPDLCGRRRMQLEVQILSREITFLKDELHFLEGAQPVSRSGCIKEINEFVGTKHDPLIPTKRRRHRSCRLFRWIGSKLCICISCLCYCCKCSPKCKRPRCLNCSCSSCCDEPCCKPNCSACCAGSCCSPDCCSCCKPNCSCCKTPSCCKPNCSCSCPSCSSCCDTSCCKPSCTCFNIFSCFKSLYSCFKIPSCFKSQCNCSSPNCCTCTLPSCSCKGCACPSCGCNGCGCPSCGCNGCGCPSCGCNGCGLPSCGCNGCGSCSCAQCKPDCGSCSTNCCSCKPSCNGCCGEQCCRCADCFSCSCPRCSSCFNIFKCSCAGCCSSLCKCPCTTQCFSCQSSCCKRQPSCCKCQSSCCEGQPSCCEGHCCSLPKPSCPECSCGCVWSCKNCTEGCRCPRCRNPCCLSGCLC
# B2: DEP1-MYC (protein, UniProt Q67UU9 1-426)
# chain: B1 chain
# B3: PIL15-pGADT7 (protein, UniProt Q0JNI9 1-637)
# chain: T1 sequence
# B4: DEP1 in pBridge MCSII (protein, UniProt Q67UU9 1-426)
# chain: B1 chain
# B5: PIL15-CLUC (protein, UniProt Q0JNI9 1-637)
# chain: T1 sequence
# B6: DEP1-GFP (protein, UniProt Q67UU9 1-426)
# chain: B1 chain
# B7: PIL15-GFP (protein, UniProt Q0JNI9 1-637)
# chain: T1 sequence
# B8: PIL15-AD (protein, UniProt Q0JNI9 1-637)
# chain: T1 sequence
# B9: DEP1-AD (protein, UniProt Q67UU9 1-426)
# chain: B1 chain
# Key:
# [1] = target: T1, PIL15-cCFP (rice (Oryza sativa)); assay: split reporter; BiFC: nYFP and cCFP fusions co-expressed with H2B-mRFP in N. benthamiana leaves by agroinfiltration; confocal microscopy after 36-72 h
# [2] = target: T2, PIL15-3xFLAG (rice (Oryza sativa)); assay: co-IP; tagged proteins co-expressed in tobacco leaves; total protein (150 mM NaCl, 2.5 mM Tris-HCl, 1 mM EDTA, 10% glycerol, 0.1% NP40) precipitated with anti-GFP or anti-FLAG magnetic beads; western blot
# [3] = target: IDD10-cCFP (rice (Oryza sativa)); assay: split reporter; BiFC: nYFP and cCFP fusions co-expressed with H2B-mRFP in N. benthamiana leaves by agroinfiltration; confocal microscopy after 36-72 h
# [4] = target: IDD10-FLAG (rice (Oryza sativa)); assay: co-IP; competitive co-IP: IDD10-FLAG with TCP19-GFP or PIL15-GFP in the presence or absence of DEP1-MYC; immunoprecipitation with anti-FLAG antibodies, immunoblot
# [5] = target: IDD10-GFP (rice (Oryza sativa)); assay: co-IP; tagged proteins co-expressed in tobacco leaves; total protein (150 mM NaCl, 2.5 mM Tris-HCl, 1 mM EDTA, 10% glycerol, 0.1% NP40) precipitated with anti-GFP or anti-FLAG magnetic beads; western blot
# [6] = target: IDD10 in pBridge MCSI (rice (Oryza sativa)); assay: two-hybrid; yeast three-hybrid: pGADT7 fusions with IDD10 in pBridge MCSI and DEP1 in pBridge MCSII, strain Y2HGold; SD/-Leu-His-Trp and SD/-Leu-Met/-His-Trp
# [7] = target: IDD10-NLUC (rice (Oryza sativa)); assay: split reporter; split firefly luciferase complementation: IDD10-NLUC with CLUC fusions in N. benthamiana leaves, with or without DEP1-GFP; luminescence by CCD camera
# [8] = target: IDD10-BD (rice (Oryza sativa)); assay: two-hybrid; pairwise, pGAD424 (AD) and pGBT9 (BD) fusions in yeast strain PJ694A; growth on SD/-Leu-His-Trp
# [9] = target: TCP19 (Y2H fusion tested with DEP1) (rice (Oryza sativa)); assay: as above
molecule,measurement,setting,value
TCP19-nYFP (rice (Oryza sativa)),binding,[1],binds
TCP19-MYC (rice (Oryza sativa)),binding,[2],binds
IDD10-nYFP (rice (Oryza sativa)),binding,[1],binds
IDD10-MYC (rice (Oryza sativa)),binding,[2],binds
B1,binding,[3],binds
B2,binding,[4],binds
same,binding,[5],binds
B3,binding,[6],binds
B4,binding,[6],binds
B5,binding,[7],binds
B6,binding,[7],binds
B7,binding,[4],binds
B8,binding,[8],binds
B9,binding,[9],no binding
same,binding,[8],binds
